Data taken from PMC10876603.
Results are given in words; binding and its absence hold for the method and conditions named. Binding can be weak; no strength is given. For some assays here: Binding seen in cells or lysates may run through a third protein.

Experiments:
[1] = target: Xenopus INCENP with N-terminal 6xHIS tag (Xenopus laevis) (UniProt O13024); test: SEC; four subunits co-expressed in E. coli, captured on Ni2+ resin by the 6xHIS tag of INCENP, then Superdex 200 in 50 mM Tris pH 7.9, 500 mM NaCl, 5% glycerol, 0.5 mM TCEP (high salt); identity of all four subunits confirmed by mass spectrometry
[2] = target: Xenopus INCENP with N-terminal 6xHIS tag (Xenopus laevis) (UniProt O13024); test: co-sedimentation; purified CEN or CPC diluted into buffer with 150 mM NaCl to induce phase separation, 21,130 RCF 5 min at 23 °C, pellet analysed by SDS-PAGE against input; subunits were co-expressed and co-purified

**Q.** “Xenopus Survivin-B (from UniProt Q8JGN5)” was tested. Which binding [1] did it give?
**A.** Its binding is “binds”.

**Q.** And the binding [2]?
**A.** The binding was “binds”.
